# Results published in the supplement of paper PMC12823440, “Inhibitors supercharge kinase turnover through native proteolytic circuits” (Nature, 2025).
# Protein sequences, listed by entry. Tags and fused reporters are not part of them. Lines headed by an entry give the natural chain unless they say otherwise; changes in a name come on top.
# UniProt P42680: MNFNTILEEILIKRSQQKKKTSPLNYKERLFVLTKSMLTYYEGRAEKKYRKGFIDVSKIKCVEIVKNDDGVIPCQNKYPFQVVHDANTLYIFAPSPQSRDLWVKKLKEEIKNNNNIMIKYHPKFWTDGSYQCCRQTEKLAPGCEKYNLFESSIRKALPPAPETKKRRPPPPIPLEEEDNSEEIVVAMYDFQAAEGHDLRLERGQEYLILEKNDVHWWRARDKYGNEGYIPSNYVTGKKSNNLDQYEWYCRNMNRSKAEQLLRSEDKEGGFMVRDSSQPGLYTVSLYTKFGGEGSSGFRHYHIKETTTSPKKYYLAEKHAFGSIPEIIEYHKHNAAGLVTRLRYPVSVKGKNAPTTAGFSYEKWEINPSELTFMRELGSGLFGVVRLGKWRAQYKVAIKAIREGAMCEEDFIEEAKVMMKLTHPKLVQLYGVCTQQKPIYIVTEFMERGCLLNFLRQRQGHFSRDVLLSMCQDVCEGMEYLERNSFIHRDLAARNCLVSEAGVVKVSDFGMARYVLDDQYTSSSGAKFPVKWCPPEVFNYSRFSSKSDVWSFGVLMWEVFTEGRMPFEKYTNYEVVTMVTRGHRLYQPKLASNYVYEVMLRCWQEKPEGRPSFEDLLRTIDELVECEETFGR
# Where a name gives a salt, the structure may show the parent alone. The list shows a part of the results. Hit calls seldom repeat between salt and free forms of one compound.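 Kinases were expressed as nanoluciferase fusions in K562 cells and luminescence was read every 4 h between 2 and 18 h as percent of control, DMSO set to 100% and a positive control to 0%. A time point counts as decreased when the signal drops significantly (2 sigma). The hit call is the authors' own, does not follow from the count of time points alone, and its rule is not shown.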
# Molecular target: TEC (UniProt P42680)
# Experiment: number of time points (of 5) at which kinase-Nluc abundance scored as decreased, DMSO-normalised (count); higher = more persistent destabilization
# Settings: K562; 2-18 h
row,Compound,number of time points
1,CC(=O)Nc1nc2ccc(-c3cnc(C)c(NC(=O)OC4CCCCC4)c3)cc2s1 (10 µM),0
2,O=C1NC(=O)C(c2cn(-c3ccccc3)nc2-c2ccc(F)cc2)N1 (configuration not stated) (10 µM),0
3,CCCCNC(=N)NC(=N)N [Buformin (hydrochloride)] (2.5 µM),0
4,C[C@H]1[C@H](OC(=O)CCC(=O)O)O[C@@H]2O[C@@]3(C)CC[C@H]4[C@H](C)CC[C@@H]1[C@@]24OO3 [Artesunate] (2.5 µM),0
5,COc1ncc(Nc2ncc([C@@H](C)N3CCN(S(C)(=O)=O)CC3)cc2-c2nc(C)nc(N)n2)cc1F (10 µM),0
6,COC1(C(=O)N[C@@H](C)c2ccc(-n3cc(F)cn3)nc2)CCC(c2nc(C)cc(Nc3cc(C)[nH]n3)n2)CC1 (stereo partly drawn) [trans-Pralsetinib] (2.5 µM),0
7,CC(=O)NCCc1c[nH]c2ccc(O)cc12 [N-Acetyl-5-hydroxytryptamine] (10 µM),0
8,O=[N+]([O-])c1ccc(Sc2cccc[n+]2[O-])c2nonc12 (2.5 µM),0
9,COc1ccc(CNc2nc(N(CCO)CCO)nc3c2ncn3C(C)C)cc1 (2.5 µM),0
10,CC(CCc1ccccn1)(CCc1ccccn1)C(=O)c1ccccc1 (10 µM),0
11,[O-][n+]1cccc(-c2nc3c(Cl)cccc3cc2[C@@H](Nc2ncnc3cccnc23)C(F)(F)F)c1 [Seletalisib] (10 µM),0
12,Cc1cc2cc(Oc3ccnc(Nc4cccc(CS(=O)(=O)NCCN(C)C)c4)n3)ccc2[nH]1 [Sulfatinib] (10 µM),0
